No constants are given. Whether binding was seen depends on the method and setting. In cells and extracts the contact can be indirect.
T1: NEFA-interacting nuclear protein NIP30 (human (endogenous in HEK 293T)) (UniProt Q9GZU8)
T1 sequence: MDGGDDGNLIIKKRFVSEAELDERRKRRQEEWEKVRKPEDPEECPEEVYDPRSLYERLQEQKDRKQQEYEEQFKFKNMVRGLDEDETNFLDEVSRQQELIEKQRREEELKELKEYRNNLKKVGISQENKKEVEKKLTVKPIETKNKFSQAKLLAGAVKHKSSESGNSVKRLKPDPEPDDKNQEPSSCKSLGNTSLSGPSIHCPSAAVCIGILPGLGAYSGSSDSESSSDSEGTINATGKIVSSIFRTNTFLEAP

B1: NEFA-interacting nuclear protein NIP30 (protein, UniProt Q9GZU8 1-254)
chain: T1 sequence

Legend:
[1] = target: T1, NEFA-interacting nuclear protein NIP30 (human (endogenous in HEK 293T)); test: co-IP
[2] = target: HTLV-2 p28 (S-p28-HA) (HTLV-2); test: pull-down; S-tag affinity purification on S-beads from lysates of 293T cells transfected with mock, S-GFP, S-p30-HA or S-p28-HA; overnight at 4°C; 1 M NaCl RIPA and RIPA washes; eluted by boiling in SDS loading buffer; immunoblot for the endogenous host protein

Molecule | binding [1] | binding [2]
HTLV-2 p28 (S-p28-HA) | no binding | 
B1 |  | no binding

Source: article PMC3464894
